Results: US4322545A, “Benzoic acid esters” (priority 1981, dated 1982)

Assay: Odor, direct comparison

## CCCCCCCCCCCCCCOC(=O)c1ccccc1 [Myristyl benzoate, myristyl (C14) benzoate]
  Fragrance level to overcome inherent odor of the formula and establish a detectable level of fragrance: > 0.25%
